From the supplement of paper PMC10849652
The list shows a part of the results.

Chains of the proteins cited; added tags and fusions are not shown. Lines headed by an entry give the natural chain unless they say otherwise; changes in a name come on top.
UniProt P55082: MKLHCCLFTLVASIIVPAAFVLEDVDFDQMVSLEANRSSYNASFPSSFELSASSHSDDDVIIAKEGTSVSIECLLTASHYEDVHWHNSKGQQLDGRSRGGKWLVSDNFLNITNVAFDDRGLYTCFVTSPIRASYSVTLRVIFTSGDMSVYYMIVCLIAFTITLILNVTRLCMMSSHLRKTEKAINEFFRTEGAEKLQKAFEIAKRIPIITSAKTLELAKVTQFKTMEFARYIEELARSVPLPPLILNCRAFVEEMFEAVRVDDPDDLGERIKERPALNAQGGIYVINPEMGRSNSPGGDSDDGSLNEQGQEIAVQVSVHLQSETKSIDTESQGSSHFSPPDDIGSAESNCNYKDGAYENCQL
UniProt Q9NWA0: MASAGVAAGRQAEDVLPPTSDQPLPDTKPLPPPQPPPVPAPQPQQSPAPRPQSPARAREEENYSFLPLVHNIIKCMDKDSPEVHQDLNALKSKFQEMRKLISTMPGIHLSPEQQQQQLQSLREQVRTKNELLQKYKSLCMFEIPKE
UniProt O00470: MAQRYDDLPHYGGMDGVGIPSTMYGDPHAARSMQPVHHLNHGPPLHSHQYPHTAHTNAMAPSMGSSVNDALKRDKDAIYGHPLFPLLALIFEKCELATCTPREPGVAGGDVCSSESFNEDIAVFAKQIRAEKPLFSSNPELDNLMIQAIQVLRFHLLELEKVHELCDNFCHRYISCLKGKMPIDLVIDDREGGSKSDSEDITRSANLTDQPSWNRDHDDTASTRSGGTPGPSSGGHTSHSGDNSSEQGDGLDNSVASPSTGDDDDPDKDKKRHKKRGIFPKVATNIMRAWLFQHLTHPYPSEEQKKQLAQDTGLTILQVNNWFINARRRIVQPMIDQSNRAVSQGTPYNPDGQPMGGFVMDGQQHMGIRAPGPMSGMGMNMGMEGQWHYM
UniProt Q8NEM0: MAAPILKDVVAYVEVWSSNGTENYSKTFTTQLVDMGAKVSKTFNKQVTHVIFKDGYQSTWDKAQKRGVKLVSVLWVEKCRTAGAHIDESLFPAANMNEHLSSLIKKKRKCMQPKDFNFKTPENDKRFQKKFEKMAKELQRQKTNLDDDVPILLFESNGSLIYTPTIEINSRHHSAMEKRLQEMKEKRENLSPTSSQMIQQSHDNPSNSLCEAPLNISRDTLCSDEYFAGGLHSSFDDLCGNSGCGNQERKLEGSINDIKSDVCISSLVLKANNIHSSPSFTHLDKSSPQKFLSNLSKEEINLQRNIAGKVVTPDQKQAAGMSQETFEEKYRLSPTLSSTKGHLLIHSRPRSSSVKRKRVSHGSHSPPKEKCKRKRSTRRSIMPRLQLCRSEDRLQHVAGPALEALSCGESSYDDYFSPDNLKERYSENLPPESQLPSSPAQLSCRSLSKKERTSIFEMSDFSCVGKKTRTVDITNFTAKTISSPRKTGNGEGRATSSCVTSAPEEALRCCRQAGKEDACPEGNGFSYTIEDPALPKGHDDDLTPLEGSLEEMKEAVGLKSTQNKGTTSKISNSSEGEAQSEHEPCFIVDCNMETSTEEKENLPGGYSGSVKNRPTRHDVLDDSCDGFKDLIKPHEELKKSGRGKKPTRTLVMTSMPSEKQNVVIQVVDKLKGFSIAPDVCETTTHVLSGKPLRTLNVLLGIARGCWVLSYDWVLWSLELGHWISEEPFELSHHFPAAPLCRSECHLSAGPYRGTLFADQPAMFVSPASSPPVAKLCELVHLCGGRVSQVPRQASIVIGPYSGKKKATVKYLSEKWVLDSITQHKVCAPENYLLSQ
UniProt Q9NX70: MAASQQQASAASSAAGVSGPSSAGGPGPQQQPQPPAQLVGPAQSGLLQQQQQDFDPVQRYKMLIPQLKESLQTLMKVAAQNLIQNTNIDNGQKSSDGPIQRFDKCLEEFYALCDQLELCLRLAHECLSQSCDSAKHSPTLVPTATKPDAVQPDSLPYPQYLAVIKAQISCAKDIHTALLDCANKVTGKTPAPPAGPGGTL
UniProt Q6ZSS7: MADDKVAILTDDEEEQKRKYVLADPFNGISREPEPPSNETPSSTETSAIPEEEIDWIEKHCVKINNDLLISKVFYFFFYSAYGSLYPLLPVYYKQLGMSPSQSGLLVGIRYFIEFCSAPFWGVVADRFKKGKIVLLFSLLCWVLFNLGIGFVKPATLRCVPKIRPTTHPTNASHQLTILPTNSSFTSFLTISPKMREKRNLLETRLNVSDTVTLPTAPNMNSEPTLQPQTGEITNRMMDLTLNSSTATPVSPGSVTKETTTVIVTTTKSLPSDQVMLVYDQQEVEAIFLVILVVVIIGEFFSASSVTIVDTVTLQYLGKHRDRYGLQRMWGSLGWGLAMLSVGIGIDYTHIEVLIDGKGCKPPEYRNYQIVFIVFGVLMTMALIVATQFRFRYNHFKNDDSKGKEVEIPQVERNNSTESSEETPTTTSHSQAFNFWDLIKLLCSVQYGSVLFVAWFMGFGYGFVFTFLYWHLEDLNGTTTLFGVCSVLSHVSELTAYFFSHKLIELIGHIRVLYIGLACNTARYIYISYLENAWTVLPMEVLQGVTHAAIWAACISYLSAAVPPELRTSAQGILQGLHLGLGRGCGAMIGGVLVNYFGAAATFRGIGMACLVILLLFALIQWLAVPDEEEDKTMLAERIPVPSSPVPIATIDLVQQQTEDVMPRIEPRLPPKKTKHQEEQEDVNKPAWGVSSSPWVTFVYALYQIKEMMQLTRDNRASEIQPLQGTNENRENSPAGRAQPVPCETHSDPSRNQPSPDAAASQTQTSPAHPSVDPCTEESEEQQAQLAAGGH
UniProt P08582: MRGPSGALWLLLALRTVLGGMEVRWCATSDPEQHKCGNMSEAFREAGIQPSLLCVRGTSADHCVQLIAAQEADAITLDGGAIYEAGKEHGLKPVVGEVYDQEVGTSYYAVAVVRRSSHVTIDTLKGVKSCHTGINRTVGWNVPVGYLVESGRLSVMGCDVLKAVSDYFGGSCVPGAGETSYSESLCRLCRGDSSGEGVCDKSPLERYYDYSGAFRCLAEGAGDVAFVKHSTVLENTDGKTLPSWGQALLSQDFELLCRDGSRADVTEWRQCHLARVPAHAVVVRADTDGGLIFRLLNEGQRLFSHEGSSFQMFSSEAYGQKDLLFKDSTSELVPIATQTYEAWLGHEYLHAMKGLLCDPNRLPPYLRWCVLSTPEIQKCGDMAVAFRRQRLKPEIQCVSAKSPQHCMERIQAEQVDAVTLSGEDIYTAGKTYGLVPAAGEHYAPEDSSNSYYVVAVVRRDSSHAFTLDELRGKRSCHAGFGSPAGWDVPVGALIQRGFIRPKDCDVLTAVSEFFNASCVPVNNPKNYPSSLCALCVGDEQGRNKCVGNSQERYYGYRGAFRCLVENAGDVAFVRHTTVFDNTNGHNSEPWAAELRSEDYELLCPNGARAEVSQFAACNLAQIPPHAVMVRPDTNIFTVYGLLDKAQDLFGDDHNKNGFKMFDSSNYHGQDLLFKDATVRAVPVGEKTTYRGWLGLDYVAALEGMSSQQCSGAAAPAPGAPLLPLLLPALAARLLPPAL
UniProt Q06413, whole entry, looked up: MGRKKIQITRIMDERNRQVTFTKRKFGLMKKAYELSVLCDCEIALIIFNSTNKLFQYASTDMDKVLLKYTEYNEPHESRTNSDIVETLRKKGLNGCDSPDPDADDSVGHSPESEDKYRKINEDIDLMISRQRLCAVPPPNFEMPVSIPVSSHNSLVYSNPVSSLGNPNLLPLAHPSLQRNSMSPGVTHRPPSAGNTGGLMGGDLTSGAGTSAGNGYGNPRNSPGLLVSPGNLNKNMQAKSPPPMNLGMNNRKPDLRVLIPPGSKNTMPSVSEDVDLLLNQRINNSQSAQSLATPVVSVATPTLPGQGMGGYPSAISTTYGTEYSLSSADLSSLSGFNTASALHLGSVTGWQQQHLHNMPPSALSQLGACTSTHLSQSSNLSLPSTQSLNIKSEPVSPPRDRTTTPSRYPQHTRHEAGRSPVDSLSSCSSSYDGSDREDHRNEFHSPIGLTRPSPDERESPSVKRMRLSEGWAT
UniProt Q86XA0: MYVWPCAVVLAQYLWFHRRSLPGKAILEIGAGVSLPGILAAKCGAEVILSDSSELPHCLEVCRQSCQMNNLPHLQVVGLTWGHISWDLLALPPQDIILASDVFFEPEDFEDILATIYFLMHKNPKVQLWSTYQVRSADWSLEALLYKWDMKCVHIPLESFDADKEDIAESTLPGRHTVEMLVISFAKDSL
UniProt Q00987, whole entry, looked up: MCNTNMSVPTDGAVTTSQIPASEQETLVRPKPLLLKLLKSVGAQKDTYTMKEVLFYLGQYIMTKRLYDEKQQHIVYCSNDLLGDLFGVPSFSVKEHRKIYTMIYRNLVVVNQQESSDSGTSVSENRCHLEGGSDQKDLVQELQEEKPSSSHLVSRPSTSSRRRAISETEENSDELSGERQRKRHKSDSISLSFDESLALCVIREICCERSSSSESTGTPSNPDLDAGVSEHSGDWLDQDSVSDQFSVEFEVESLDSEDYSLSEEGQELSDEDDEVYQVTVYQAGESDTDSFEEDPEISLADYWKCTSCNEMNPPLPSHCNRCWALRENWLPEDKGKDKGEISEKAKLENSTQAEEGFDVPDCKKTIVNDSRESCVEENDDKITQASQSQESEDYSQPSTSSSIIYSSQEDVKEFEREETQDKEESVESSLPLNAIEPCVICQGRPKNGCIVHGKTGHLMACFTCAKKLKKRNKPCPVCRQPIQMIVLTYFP
UniProt A4D2B0: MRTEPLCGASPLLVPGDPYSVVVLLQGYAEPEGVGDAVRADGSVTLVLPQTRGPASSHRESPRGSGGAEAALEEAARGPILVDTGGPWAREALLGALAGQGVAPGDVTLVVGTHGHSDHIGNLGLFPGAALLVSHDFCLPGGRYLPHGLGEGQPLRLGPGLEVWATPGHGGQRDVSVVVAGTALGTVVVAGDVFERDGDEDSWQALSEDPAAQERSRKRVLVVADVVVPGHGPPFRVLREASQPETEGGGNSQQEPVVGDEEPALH
UniProt Q5SR56: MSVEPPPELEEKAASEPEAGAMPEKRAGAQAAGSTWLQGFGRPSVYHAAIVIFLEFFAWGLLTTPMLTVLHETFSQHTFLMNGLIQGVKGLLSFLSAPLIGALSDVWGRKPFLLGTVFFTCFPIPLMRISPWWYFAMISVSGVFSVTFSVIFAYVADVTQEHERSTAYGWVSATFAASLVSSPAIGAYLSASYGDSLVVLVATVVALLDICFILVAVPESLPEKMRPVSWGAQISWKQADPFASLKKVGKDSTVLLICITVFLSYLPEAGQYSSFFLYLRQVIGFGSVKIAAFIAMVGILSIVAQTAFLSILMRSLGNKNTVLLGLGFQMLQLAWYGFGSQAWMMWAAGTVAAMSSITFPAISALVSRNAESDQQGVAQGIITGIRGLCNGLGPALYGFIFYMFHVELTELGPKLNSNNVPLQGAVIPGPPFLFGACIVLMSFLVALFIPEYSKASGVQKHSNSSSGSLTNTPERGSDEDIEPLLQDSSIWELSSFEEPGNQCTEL
UniProt A1L020: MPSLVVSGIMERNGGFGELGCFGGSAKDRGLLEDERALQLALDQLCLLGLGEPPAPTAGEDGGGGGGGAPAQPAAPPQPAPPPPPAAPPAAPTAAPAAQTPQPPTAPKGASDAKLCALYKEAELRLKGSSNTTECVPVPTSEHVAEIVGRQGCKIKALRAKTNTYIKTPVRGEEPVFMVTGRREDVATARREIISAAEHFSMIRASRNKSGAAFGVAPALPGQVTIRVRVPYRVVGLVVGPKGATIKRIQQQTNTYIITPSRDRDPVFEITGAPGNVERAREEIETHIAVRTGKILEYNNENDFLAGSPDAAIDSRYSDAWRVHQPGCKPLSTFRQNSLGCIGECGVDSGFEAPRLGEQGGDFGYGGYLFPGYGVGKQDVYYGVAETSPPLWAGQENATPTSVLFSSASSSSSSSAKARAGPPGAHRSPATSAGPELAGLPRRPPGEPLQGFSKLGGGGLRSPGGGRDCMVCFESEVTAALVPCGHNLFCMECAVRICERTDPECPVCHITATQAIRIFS
UniProt Q14680: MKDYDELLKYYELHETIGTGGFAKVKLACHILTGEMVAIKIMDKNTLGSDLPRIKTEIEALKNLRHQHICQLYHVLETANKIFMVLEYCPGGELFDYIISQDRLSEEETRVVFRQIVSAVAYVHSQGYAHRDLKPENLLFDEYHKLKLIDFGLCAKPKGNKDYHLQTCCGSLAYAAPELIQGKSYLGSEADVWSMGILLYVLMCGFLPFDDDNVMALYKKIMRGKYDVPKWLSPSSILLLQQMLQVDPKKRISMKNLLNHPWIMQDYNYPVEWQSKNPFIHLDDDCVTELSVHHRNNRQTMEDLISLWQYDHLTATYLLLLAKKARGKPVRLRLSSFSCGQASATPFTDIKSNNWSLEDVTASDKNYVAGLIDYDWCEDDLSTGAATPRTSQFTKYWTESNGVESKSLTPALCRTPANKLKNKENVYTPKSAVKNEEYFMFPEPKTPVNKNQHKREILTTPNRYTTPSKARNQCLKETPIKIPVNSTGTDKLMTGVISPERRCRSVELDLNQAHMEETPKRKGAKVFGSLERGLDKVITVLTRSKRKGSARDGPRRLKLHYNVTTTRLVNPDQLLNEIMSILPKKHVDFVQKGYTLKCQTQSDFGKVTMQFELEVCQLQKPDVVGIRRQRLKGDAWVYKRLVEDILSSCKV

Tests used:
Assay in all cases: log2 fold change, soluble protein after heating vs DMSO (PISA); higher = thermal stabilisation; K562 lysate, 10 uM; active = over 0.2 and 3.5 SD of the protein, either way, in both replicates (recomputed)
[1] = compound: CC(=O)c1cnc2ccc(-c3cc(Cl)c(O)c(Cl)c3)nc2c1N[C@H]1CC[C@H](CN(C)C)CC1
Method in brief: (§1)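 Thermal stability, expressed as log-two fold change relative to solvent controls, is given from duplicates. Crude K562 extract in PBS pH 7.4 with 1 mM MgCl2, at 1 mg/mL protein, was treated with 10 μM compound for 30 min and heated in aliquots for 3 min across 48°C-58°C. After pooling, adjustment to 0.5% NP-40 at 4°C and centrifugation at 21,000xg for 90 min, supernatant protein was measured by TMTpro 16plex LC-MS/MS with channel sums equalised.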

ralimetinib = compound: CC(C)(C)Cn1c(N)nc2ccc(-c3[nH]c(C(C)(C)C)nc3-c3ccc(F)cc3)nc21 [ralimetinib]
Method in brief: as §1

[2] = compound: CC(C)(O)CC(=O)NCCn1ccc2ncnc(Nc3ccc(Oc4cccc(C(F)(F)F)c4)c(Cl)c3)c21
Method in brief: as §1

[3] = compound: CC(C)C1=C2N=C(C=C(N2N=C1)NCC3=CC=CC=C3)NCCCCCCN
Method in brief: as §1

[4] = compound: CC1=C(C(CC(=O)N1)C2=CC=C(C=C2)C(F)(F)F)C(=O)NC3=C(C=C4C(=C3)C=NN4)F
Method in brief: as §1

[5] = compound: CC1=C(C2=C(C=C1)C(=O)C3=CC=CC=C3N2CCCN)C
Method in brief: as §1

[6] = compound: CC1=C(C=C(C=C1)NC(=O)C2=CC(=CC=C2)C(C)(C)C#N)NC3=CC4=C(C=C3)N=CN(C4=O)C
Method in brief: as §1

[7] = compound: CC1=C(C=C(C=C1)NC(=O)C2=CC(=CC=C2)N(C)C)NC(=O)C3=CC=C(C=C3)O
Method in brief: as §1

[8] = compound: CC1=CC=C(C=C1)SC2=C3C=C(SC3=CN=C2)C(=O)N
Method in brief: as §1

vemurafenib = compound: CCCS(=O)(=O)Nc1ccc(F)c(C(=O)c2c[nH]c3ncc(-c4ccc(Cl)cc4)cc23)c1F [vemurafenib]
Method in brief: as §1

[9] = compound: CCCS(=O)(=O)Nc1ccc(F)c(C(=O)c2c[nH]c3ncc(Cl)cc23)c1F
Method in brief: as §1

[10] = compound: CC[C@@H]1C(=O)N(C)c2cnc(Nc3ccc(C(=O)NC4CCN(C)CC4)cc3OC)nc2N1C1CCCC1
Method in brief: as §1

volasertib = compound: CC[C@@H]1C(=O)N(C)c2cnc(Nc3ccc(C(=O)N[C@H]4CC[C@H](N5CCN(CC6CC6)CC5)CC4)cc3OC)nc2N1C(C)C [volasertib]
Method in brief: as §1

[11] = compound: CCn1c(C(=O)N(C2CC2)C2CC2)cc2c3c(ncn3C)c(Nc3cc(C)n(C)n3)nc21
Method in brief: as §1

saracatinib = compound: CN1CCN(CCOc2cc(OC3CCOCC3)c3c(Nc4c(Cl)ccc5c4OCO5)ncnc3c2)CC1 [saracatinib]
Method in brief: as §1

sotrastaurin = compound: CN1CCN(c2nc(C3=C(c4c[nH]c5ccccc45)C(=O)NC3=O)c3ccccc3n2)CC1 [sotrastaurin]
Method in brief: as §1

[12] = compound: CCn1cc(-c2ccnc3[nH]c(-c4cccc(CN(C)C)c4)cc23)c(-c2ccc(NC(=O)N(C)C)cc2)n1
Method in brief: as §1

[13] = compound: CN1CCC(CNc2ccc3ncc(-c4cccc(OC(F)(F)F)c4)n3n2)CC1
Method in brief: as §1

ibrutinib = compound: C=CC(=O)N1CCC[C@@H](n2nc(-c3ccc(Oc4ccccc4)cc3)c3c(N)ncnc32)C1 [ibrutinib]
Method in brief: as §1

barasertib = compound: CCN(CCCOc1ccc2c(Nc3cc(CC(=O)Nc4cccc(F)c4)[nH]n3)ncnc2c1)CCOP(=O)(O)O [barasertib]
Method in brief: as §1

Measured: log2 fold change

MEN1 (UniProt O00255)
inactive: [1] -0.22 | ralimetinib -0.049 | [2] -0.181 | [3] -0.057 | [4] -0.098 | [5] -0.051 | [6] 0.207 | [7] -0.084 | [8] 0.285 | vemurafenib 0.03 | [9] 0.242 | [10] 0.012 | volasertib 0.054 | [11] -0.172 | saracatinib 0.059 | sotrastaurin -0.362

MFAP3 (UniProt P55082)
inactive: ralimetinib 0.051 | [2] 0.102 | [3] 0.008 | [5] -0.198 | [6] -0.02 | [7] 0.08 | vemurafenib 0.128 | [11] 0.124 | [12] -0.04 | [13] 0.05 | saracatinib 0.158 | sotrastaurin -0.018

MED9 (UniProt Q9NWA0)
inactive: [1] 0.019 | ralimetinib 0.007 | [2] 0.059 | [4] -0.051 | [5] -0.033 | [6] 0.023 | [7] 0 | [8] 0.053 | [9] 0.088 | volasertib 0.073 | [11] 0.009 | [12] 0.059 | [13] -0.094 | saracatinib 0.068 | sotrastaurin -0.117

MBTD1 (UniProt Q05BQ5)
inactive: ralimetinib 0.088 | [2] -0.052 | [6] -0.066 | [7] 0.07 | [11] 0.085 | sotrastaurin 0.059

METTL15 (UniProt A6NJ78)
inactive: ralimetinib 0.037 | [2] 0.015 | [4] -0.079 | [6] -0.058 | [7] 0.041 | vemurafenib 0.093 | [11] -0.107 | sotrastaurin 0.066

MEIS1 (UniProt O00470)
inactive: ibrutinib 0.117 | [6] -0.04 | barasertib 0.054 | [10] 0.272 | [12] 0.115 | [13] -0.031 | sotrastaurin -0.008

MCPH1 (UniProt Q8NEM0)
inactive: [6] 0.135 | [12] 0.125 | [13] 0.006 | sotrastaurin -0.193

MFSD9 (UniProt Q8NBP5)
inactive: [5] -0.153 | saracatinib 0.042

MED29 (UniProt Q9NX70)
inactive: ralimetinib -0.028 | [2] 0.017 | [3] -0.073 | [5] -0.121 | [6] -0.016 | [7] 0.013 | [11] -0.018 | [12] 0.144 | [13] -0.083 | saracatinib 0.145 | sotrastaurin -0.011

MFSD6 (UniProt Q6ZSS7)
inactive: ibrutinib -0.092 | ralimetinib 0.002 | [2] -0.05 | [3] -0.015 | [5] -0.256 | [7] -0.01 | barasertib 0.038 | [10] 0.013 | [11] -0.118 | [12] 0.018 | [13] 0.088 | saracatinib -0.179

MELTF (UniProt P08582)
inactive: ibrutinib -0.007 | [3] -0.186 | [6] 0.088 | vemurafenib 0.032 | barasertib -0.026 | [10] 0.043 | [12] 0.097 | [13] 0.037 | sotrastaurin 0.174

MEF2C isoform 2 (UniProt Q06413)
inactive: [1] 0.007 | [4] -0.049 | [5] -0.173 | [6] -0.022 | [8] 0.049 | vemurafenib 0.007 | [9] -0.061 | [10] 0.137 | volasertib 0.07 | [12] 0.068 | [13] -0.077 | saracatinib 0.011 | sotrastaurin 0.124

METTL23 (UniProt Q86XA0)
inactive: [1] -0.022 | [4] 0.081 | [8] 0.083 | vemurafenib 0.121 | [9] -0.066 | [10] 0.201 | volasertib 0.135

Two consecutive records from above, quoted:
METTL15 (UniProt A6NJ78)
inactive: ralimetinib 0.037 | [2] 0.015 | [4] -0.079 | [6] -0.058 | [7] 0.041 | vemurafenib 0.093 | [11] -0.107 | sotrastaurin 0.066

MEIS1 (UniProt O00470)
inactive: ibrutinib 0.117 | [6] -0.04 | barasertib 0.054 | [10] 0.272 | [12] 0.115 | [13] -0.031 | sotrastaurin -0.008

Remaining list, next part.

METTL7B (UniProt Q6UX53)
inactive: [3] 0.212

MED24 (UniProt F5H5K2)
inactive: [4] 0.237

MDM2 isoform 11 (UniProt Q00987)
inactive: ibrutinib -0.071 | ralimetinib 0.038 | [2] -0.08 | [3] -0.006 | [6] -0.074 | [7] 0.076 | vemurafenib -0.035 | barasertib -0.238 | [11] -0.03 | [12] 0.024 | [13] -0.038 | sotrastaurin 0.053

MBLAC1 (UniProt A4D2B0)
inactive: [1] -0.059 | [3] 0.045 | [8] 0.023 | vemurafenib 0.078 | [9] 0.063 | [10] -0.092 | volasertib 0.036 | [12] -0.003 | [13] 0.06

MFSD14B (UniProt Q5SR56)
inactive: ralimetinib 0.111 | [2] 0.032 | [3] -0.099 | [4] -0.125 | [6] -0.049 | [7] -0.243 | [10] -0.006 | [11] -0.097 | [12] -0.054 | [13] 0.032 | sotrastaurin -0.176

MEX3A (UniProt A1L020)
inactive: ralimetinib -0.21 | [2] -0.123 | [4] -0.076 | [5] 0.003 | [7] -0.162 | vemurafenib -0.094 | [11] 0.191 | saracatinib 0.055

MELK (UniProt Q14680)
inactive: [1] -0.128 | ralimetinib -0.061 | [2] 0.011 | [3] 0.082 | [4] 0.063 | [5] -0.044 | [6] 0.001 | [7] 0.047 | [8] 0.104 | vemurafenib -0.034 | [9] 0.139 | [10] 0.052 | volasertib -0.051 | [11] -0.089 | [12] 0.033 | [13] -0.018 | saracatinib 0.051 | sotrastaurin 0.034
